According to the supplement of paper PMC12819154, “High-throughput peptide-centric local stability assay extends protein–ligand identification to membrane proteins, tissues and bacteria” (Nature Structural & Molecular Biology, 2025):
Some of the results follow. Most values lie at the level of the controls, where differences are scatter.

Amino acid sequences for entries named in this document (tags omitted). A change or cut given only in a name is not applied to a line headed by its entry.
UniProt Q9DBS1: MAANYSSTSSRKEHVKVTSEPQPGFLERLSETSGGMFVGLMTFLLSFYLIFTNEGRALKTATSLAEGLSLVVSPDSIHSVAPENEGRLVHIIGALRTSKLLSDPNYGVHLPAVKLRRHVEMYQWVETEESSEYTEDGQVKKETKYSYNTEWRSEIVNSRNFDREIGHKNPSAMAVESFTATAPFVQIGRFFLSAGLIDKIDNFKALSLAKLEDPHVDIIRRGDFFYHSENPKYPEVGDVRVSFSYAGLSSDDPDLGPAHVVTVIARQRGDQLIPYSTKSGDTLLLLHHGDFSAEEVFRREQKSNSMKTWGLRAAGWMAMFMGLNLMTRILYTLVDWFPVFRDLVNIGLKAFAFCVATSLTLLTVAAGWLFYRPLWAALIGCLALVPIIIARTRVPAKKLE
UniProt Q9EQQ2: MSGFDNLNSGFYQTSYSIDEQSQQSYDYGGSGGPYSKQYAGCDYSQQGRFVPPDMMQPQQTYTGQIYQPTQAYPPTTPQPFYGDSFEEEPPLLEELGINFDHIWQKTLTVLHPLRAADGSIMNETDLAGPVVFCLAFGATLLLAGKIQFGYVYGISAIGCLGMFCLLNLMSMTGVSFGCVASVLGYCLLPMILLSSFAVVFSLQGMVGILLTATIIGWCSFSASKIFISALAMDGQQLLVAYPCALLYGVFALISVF
UniProt Q9DAT5: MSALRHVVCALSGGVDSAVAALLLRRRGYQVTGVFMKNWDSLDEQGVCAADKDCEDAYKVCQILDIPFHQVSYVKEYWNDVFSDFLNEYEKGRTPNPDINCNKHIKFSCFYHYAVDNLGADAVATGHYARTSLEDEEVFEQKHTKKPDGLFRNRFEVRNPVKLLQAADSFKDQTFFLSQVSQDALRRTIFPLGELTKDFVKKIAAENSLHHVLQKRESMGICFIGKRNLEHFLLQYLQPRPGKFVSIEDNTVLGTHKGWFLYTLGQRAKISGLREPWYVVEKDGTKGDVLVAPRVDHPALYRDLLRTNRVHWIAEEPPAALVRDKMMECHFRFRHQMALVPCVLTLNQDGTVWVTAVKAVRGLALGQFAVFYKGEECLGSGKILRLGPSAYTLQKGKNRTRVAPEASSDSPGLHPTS
UniProt Q9EQU3: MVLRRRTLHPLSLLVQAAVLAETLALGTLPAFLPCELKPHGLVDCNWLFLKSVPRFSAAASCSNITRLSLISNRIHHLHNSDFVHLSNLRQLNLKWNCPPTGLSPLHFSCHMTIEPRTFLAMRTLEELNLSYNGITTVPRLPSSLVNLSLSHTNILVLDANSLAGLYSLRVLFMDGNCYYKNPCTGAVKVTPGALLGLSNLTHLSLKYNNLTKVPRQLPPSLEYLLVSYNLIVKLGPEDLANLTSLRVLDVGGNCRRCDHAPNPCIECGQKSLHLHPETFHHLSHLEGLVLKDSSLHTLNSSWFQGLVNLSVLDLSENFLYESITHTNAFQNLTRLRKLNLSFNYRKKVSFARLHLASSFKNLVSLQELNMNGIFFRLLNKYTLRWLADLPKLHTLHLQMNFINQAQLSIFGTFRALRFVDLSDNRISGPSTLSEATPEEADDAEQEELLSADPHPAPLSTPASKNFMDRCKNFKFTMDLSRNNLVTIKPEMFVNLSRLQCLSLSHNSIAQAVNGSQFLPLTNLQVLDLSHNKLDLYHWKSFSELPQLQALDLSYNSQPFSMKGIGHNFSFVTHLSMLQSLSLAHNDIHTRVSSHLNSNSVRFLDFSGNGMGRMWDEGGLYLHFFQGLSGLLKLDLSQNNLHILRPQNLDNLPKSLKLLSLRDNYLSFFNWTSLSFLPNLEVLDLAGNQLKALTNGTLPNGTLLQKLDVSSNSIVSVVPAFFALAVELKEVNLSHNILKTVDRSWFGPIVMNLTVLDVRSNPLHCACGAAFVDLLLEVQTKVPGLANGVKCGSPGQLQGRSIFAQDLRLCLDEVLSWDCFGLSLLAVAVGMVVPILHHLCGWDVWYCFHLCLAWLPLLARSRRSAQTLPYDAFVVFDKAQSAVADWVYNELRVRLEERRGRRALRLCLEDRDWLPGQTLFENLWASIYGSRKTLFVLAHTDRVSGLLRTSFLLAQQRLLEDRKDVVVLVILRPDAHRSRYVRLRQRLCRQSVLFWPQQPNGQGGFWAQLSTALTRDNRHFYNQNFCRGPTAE
UniProt Q9DCC8, whole entry: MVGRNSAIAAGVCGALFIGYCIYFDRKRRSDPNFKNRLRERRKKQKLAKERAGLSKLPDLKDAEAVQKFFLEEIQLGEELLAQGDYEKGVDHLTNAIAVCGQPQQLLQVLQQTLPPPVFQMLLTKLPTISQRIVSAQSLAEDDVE
UniProt Q9DD18: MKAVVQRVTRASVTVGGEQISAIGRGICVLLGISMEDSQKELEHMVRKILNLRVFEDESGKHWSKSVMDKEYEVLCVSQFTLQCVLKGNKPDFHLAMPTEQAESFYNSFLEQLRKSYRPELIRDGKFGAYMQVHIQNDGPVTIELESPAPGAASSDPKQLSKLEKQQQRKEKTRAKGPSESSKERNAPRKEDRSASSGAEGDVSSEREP
UniProt Q9DB29: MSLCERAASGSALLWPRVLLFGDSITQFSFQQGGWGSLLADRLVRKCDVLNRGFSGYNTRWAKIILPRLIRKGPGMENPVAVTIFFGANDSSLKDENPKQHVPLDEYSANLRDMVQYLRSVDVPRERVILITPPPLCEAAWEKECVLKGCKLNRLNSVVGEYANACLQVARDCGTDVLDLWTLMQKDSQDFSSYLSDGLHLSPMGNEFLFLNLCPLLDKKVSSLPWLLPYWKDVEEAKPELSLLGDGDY
UniProt Q9DD02: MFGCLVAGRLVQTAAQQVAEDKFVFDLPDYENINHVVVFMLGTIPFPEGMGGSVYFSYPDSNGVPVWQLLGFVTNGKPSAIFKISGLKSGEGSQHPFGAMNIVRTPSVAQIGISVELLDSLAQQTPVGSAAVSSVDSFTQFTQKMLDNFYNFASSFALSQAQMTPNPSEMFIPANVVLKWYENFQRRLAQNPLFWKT
UniProt Q9ERL7, whole entry: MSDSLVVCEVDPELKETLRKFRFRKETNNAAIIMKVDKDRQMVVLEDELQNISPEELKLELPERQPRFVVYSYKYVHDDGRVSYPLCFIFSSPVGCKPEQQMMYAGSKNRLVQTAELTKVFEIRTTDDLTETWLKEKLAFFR
UniProt Q9DB76: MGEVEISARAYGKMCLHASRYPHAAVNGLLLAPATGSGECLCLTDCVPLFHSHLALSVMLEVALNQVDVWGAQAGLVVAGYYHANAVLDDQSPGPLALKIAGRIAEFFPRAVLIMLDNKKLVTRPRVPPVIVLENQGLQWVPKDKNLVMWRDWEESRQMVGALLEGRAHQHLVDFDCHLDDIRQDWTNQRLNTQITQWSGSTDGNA
UniProt Q9ERD7, whole entry: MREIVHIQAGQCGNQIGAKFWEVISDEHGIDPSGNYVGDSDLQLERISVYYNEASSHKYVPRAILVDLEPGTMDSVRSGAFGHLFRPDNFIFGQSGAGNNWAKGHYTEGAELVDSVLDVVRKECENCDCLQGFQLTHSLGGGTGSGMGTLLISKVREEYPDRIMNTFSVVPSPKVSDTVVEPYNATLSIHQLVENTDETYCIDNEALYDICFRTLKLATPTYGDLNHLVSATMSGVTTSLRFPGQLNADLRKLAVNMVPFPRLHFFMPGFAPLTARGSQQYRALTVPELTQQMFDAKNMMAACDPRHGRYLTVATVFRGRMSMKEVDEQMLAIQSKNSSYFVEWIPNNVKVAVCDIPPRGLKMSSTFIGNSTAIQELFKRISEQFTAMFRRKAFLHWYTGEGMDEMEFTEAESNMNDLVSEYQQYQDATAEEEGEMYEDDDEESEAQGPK
UniProt Q9ERS4: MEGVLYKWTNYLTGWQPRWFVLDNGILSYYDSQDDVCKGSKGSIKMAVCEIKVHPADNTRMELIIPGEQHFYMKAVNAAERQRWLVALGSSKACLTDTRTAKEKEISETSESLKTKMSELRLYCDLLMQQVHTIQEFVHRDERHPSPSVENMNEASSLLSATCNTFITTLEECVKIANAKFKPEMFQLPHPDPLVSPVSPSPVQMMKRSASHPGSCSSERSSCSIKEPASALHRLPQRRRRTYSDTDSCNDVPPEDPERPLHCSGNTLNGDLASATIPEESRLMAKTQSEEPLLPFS
UniProt Q9DAU1: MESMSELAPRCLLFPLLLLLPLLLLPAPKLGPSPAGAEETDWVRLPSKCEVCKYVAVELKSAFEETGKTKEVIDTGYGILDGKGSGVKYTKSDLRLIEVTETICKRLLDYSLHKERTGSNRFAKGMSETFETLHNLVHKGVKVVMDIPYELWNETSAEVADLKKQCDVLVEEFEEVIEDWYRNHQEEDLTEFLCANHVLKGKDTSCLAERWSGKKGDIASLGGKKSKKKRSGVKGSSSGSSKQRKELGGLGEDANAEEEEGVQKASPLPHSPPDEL
UniProt Q9DBS5: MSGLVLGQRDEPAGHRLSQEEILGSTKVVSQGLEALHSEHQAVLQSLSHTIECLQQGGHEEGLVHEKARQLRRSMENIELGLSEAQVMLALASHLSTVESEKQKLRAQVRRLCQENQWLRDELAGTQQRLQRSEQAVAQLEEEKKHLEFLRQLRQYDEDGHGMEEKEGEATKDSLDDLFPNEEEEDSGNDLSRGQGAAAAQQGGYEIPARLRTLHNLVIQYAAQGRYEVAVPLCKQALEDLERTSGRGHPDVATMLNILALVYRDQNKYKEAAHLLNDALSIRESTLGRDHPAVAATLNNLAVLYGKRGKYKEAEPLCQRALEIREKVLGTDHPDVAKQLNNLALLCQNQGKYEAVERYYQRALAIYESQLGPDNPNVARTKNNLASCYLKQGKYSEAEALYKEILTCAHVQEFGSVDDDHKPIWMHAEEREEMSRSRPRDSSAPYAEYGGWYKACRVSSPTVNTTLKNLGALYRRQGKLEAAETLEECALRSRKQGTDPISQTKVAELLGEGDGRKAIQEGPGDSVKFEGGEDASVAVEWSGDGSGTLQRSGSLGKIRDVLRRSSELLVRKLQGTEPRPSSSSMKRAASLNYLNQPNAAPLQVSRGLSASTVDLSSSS
UniProt Q9DBB4: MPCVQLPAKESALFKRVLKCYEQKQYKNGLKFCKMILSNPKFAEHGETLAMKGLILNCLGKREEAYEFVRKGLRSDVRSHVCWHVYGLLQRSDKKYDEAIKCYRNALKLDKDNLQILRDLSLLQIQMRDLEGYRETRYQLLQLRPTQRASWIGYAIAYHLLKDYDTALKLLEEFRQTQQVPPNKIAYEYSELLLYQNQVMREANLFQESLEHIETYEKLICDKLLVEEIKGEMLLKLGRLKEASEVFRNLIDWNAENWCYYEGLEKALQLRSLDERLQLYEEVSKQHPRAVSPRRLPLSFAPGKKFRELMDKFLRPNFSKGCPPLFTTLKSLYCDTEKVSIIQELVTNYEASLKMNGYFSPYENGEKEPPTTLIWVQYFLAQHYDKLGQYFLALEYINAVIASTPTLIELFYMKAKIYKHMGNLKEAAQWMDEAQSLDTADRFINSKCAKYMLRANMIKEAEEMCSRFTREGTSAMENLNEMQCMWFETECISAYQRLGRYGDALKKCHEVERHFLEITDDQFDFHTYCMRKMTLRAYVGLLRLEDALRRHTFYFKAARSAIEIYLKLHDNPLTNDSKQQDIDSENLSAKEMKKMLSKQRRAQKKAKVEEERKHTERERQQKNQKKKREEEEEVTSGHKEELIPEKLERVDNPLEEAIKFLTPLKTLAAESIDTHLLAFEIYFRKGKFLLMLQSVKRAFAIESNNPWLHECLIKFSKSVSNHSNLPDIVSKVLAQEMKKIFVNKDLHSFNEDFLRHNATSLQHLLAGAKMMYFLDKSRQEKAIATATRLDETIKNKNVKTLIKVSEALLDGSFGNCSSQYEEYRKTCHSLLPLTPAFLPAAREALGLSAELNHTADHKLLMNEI
UniProt Q9DBC3: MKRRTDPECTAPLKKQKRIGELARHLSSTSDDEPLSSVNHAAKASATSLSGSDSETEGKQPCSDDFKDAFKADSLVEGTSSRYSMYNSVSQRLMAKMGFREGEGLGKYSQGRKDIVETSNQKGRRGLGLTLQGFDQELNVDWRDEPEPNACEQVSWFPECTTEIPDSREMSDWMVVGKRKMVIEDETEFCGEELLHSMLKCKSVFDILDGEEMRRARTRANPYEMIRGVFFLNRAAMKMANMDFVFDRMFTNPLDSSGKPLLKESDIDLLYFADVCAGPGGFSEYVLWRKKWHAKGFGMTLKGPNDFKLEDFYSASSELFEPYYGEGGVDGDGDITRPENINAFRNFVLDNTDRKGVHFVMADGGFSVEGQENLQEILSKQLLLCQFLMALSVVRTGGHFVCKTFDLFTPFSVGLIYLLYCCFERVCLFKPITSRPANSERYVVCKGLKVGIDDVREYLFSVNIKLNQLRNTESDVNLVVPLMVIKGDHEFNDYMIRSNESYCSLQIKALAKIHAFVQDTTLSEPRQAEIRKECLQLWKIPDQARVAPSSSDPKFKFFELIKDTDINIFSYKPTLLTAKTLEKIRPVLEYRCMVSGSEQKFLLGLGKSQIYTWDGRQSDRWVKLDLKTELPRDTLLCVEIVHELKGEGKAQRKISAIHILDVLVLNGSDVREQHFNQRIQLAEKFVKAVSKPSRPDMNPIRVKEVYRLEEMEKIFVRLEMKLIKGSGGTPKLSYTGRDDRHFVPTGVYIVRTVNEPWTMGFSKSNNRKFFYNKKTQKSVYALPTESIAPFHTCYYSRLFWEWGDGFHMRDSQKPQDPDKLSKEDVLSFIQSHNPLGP

compound: CN[C@@H]1C[C@H]2O[C@@](C)([C@@H]1OC)n1c3ccccc3c3c4c(c5c6ccccc6n2c5c31)C(=O)NC4 [staurosporine]; assay: log2 fold change of tryptic peptide abundance, ligand vs vehicle (limited proteolysis) (log2 ratio); higher = more trypsin-susceptible (destabilized); details: ligand concentration: 20 uM; sample: mouse liver crude lysate; replicate design: treated separately

Target | log2 fold change
UniProt Q9ER72 (peptide sequence: ELSKGQAK, peptide start residue: 798) | -0.723
UniProt Q9DBS1 (peptide sequence: AANYSSTSSRK, peptide start residue: 2) | -0.119
UniProt Q9DCI9 (peptide sequence: IKNNIDICPECGHLK, peptide start residue: 102) | 0.256
UniProt Q9DBU6 (peptide sequence: YQDDNSLAHPNLFIEK, peptide start residue: 294) | 0.443
UniProt Q9EQ32 (peptide sequence: HGHYPNTIAEK, peptide start residue: 372) | 0.278
UniProt Q9EQQ2 (peptide sequence: TLTVLHPLR, peptide start residue: 107) | 0.264
UniProt Q9DAT5 (peptide sequence: LGPSAYTLQK, peptide start residue: 386) | -0.359
UniProt Q9EQU3 (peptide sequence: KDVVVLVILRPDAHR, peptide start residue: 963) | 0.511
UniProt Q9DCA5 (peptide sequence: RGGLEVQAK, peptide start residue: 9) | -0.359
UniProt Q9DBL2 (peptide sequence: EQSMSSVGFCVINSAKR, peptide start residue: 158) | 0.251
UniProt Q9DBT9 (peptide sequence: LQASWVTHGVPPGFGK, peptide start residue: 313) | 0.44
UniProt Q9DCC8 (peptide sequence: AGLSKLPDLK, peptide start residue: 52) | 0.0928
UniProt Q9DBE0 (peptide sequence: DTSNLLKR, peptide start residue: 320) | 0.47
UniProt Q9DD18 (peptide sequence: AKGPSESSK, peptide start residue: 175) | -0.201
UniProt Q9DB29 (peptide sequence: DMVQYLR, peptide start residue: 113) | -0.474
UniProt Q9DBX2 (peptide sequence: DKNLDDEEFLQQYRK, peptide start residue: 128) | 0.315

Target | log2 fold change
UniProt Q9DD02 (peptide sequence: RLAQNPLFWKT, peptide start residue: 187) | -0.541
UniProt Q9ERL7 (peptide sequence: TTDDLTETWLK, peptide start residue: 125) | -0.321
UniProt Q9DB76 (peptide sequence: MCLHASR, peptide start residue: 14) | 0.325
UniProt Q9ERF3 (peptide sequence: LWDLENGK, peptide start residue: 90) | 0.156
UniProt Q9DCV4 (peptide sequence: IANAYVIKEHFEK, peptide start residue: 179) | 0.121
UniProt Q9DBS9 (peptide sequence: SAFNSISVER, peptide start residue: 317) | 0.382
UniProt Q9ERD7 (peptide sequence: YLTVATVFR, peptide start residue: 310) | -0.11
UniProt Q9ERS4 (peptide sequence: EISETSESLK, peptide start residue: 105) | -0.211
UniProt Q9DAU1 (peptide sequence: LIEVTETICKRLLDYSLHK, peptide start residue: 96) | -0.21
UniProt Q9DBS5 (peptide sequence: KQGTDPISQTK, peptide start residue: 495) | -0.187
UniProt Q9DB16 (peptide sequence: TDDEQFADEKNYLIK, peptide start residue: 313) | 0.143
UniProt Q9DBB4 (peptide sequence: HNATSLQHLLAGAK, peptide start residue: 756) | -0.44
UniProt Q9EQI8 (peptide sequence: SLYSDHELR, peptide start residue: 80) | 0.065
UniProt Q9DC33 (peptide sequence: YLDEADRDKER, peptide start residue: 151) | 0.194
UniProt Q9DBC3 (peptide sequence: HFVPTGVYIVR, peptide start residue: 741) | 0.409

Shown as tab-separated lines: entries from further up.
Target	log2 fold change
UniProt Q9DBS5 (peptide sequence: KQGTDPISQTK, peptide start residue: 495)	-0.187
UniProt Q9DB16 (peptide sequence: TDDEQFADEKNYLIK, peptide start residue: 313)	0.143
